# In PubChem BioAssay AID493014 (National Center for Advancing Translational Sciences (NCATS), 2011):
# Some of the results follow. Shown are side measurements of this screen, not its main read-out; they come without a call. Compounds called inactive in the main read-out are mostly missing here. Words in brackets tell the shape of the fitted curve; partial curves, single points and poor fits give uncertain potencies.
# Assay: qHTS Assay to Find Inhibitors of Chronic Active B-Cell Receptor Signaling
# Settings: ABC-DLBCL IkBa-CBG/CBR reporter, luminescence ratio (green luciferase fused to IkBa over red control in TMD8 lymphoma cells), 4 h
# In short: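 Doxycycline induced both beetle luciferases in TMD8 lymphoma cells; IKK-driven degradation limits the IkappaBalpha-fused green signal, while red luminescence normalises for cell number and nonspecific effects. Compounds tested up to 46 uM, 4 hrs.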
# [1] = measured here: CBR red luminescence, cell number
# [2] = measured here: IkBa-CBG green luminescence
Compound,AC50 [1],AC50 [2]
CCC1Oc2ccc(C)cc2N(CC(=O)N(Cc2ccc(C)o2)C2CCCC2)C1=O (stereo not drawn),"23.1 µM [falling, single point]",–
Cc1ccc(CC(=O)Nc2nccs2)cc1C,"3.16 µM [falling, full curve, poor fit]",–
O=c1[nH]c2c(cnn2-c2ccc(Cl)cc2)c(=O)n1-c1cccc(Cl)c1,"0.282 µM [falling, full curve, poor fit]",–
Cc1[nH]c2ccccc2c1C(=O)C(=O)N1CC=C(c2ccccc2)CC1,"29.1 µM [falling, single point]",–
CC(C)(C)OC(=O)N1CCC[C@H]1C(=O)N/N=C/c1ccc2nccnc2c1,"7.94 µM [falling, partial curve, poor fit]",–
O=C(/C=C/c1ccc(O)cc1)c1ccccc1,"25.1 µM [falling, single point]","11.2 µM [rising, partial curve, poor fit]"
COc1ccccc1NC(=O)c1ccccc1C(=O)O,"35.5 µM [falling, single point]",–
O=C(CCC1CCN(C(=O)c2cccc(Cl)c2F)CC1)Nc1ccccc1,"4.47 µM [falling, partial curve, poor fit]",–
CC1(C)NC(=O)N(CCCOc2ccccc2Br)C1=O,"23.1 µM [rising, single point]",–
COc1ccc(N/C=C(\C#N)c2nc3ccccc3n2C)c(OC)c1,"0.708 µM [rising, full curve, poor fit]",–
CCc1ccccc1NC(=O)c1ccccc1N1C(=O)C2C3C=CC(C3)C2C1=O (stereo not drawn),"1.58 µM [falling, partial curve, poor fit]",–
Nc1ccc2nc(-c3ccccn3)[nH]c2c1,"13 µM [falling, partial curve, poor fit]",–
COc1ccc(-c2cnc3c(-c4ccc(F)cc4)cnn3c2N)cc1,"4.47 µM [rising, full curve, poor fit]",–
COc1ccc(NC2CCCN(C(=O)CSc3ccncc3)C2)cc1 (stereo not drawn),"3.98 µM [falling, partial curve, poor fit]",–
O=C(CC1C(=O)NCCN1C/C=C/c1ccccc1)NCCCC1CCCC1 (stereo not drawn),"15.8 µM [falling, single point]",–
CCOC(=O)c1sc(N/N=C/c2cc(Br)c(O)c(OC)c2)nc1C,"35.5 µM [falling, single point]",–
N/C(=N\OC(=O)CCCc1ccccc1)c1ccc([N+](=O)[O-])cc1,"2.31 µM [rising, full curve, poor fit]",–
COc1ccc(Cl)cc1NC(=O)c1ccc2c(SCC(=O)O)c3c(nc2c1)CCCC3,"22.4 µM [falling, partial curve, poor fit]",–
COc1cccc2cc(C(=O)OCC(=O)NCc3ccc4c(c3)OCO4)c(=O)oc12,"35.5 µM [falling, single point]",–
COC(=O)CN1C(=O)NC2(CCCc3ccccc32)C1=O (stereo not drawn),"35.5 µM [rising, single point]",–
COc1ccc(OCc2cc(C(=O)N(C)Cc3cc(C4CC4)n[nH]3)no2)c(Cl)c1,"2.82 µM [falling, partial curve, poor fit]",–

# Among those listed so far, these contain fluorine.
Compound,AC50 [1],AC50 [2]
O=C(CCC1CCN(C(=O)c2cccc(Cl)c2F)CC1)Nc1ccccc1,"4.47 µM [falling, partial curve, poor fit]",–
COc1ccc(-c2cnc3c(-c4ccc(F)cc4)cnn3c2N)cc1,"4.47 µM [rising, full curve, poor fit]",–

# The list continues.

Compound,AC50 [1],AC50 [2]
Cc1c(CN2CCC(CO)(Cc3ccccc3)CC2)c2ccccc2n1C,"22.4 µM [falling, single point]",–
O=C(NCCNC1CCC(c2ccccc2)CC1)c1ccc(F)cc1 (stereo not drawn),"3.55 µM [falling, partial curve]",–
O=C1NC(=Nc2ccc(F)cc2)CS1,"1 µM [falling, full curve, poor fit]",–
CN(C)CC(=O)c1ccc(-c2ccccc2)cc1,"6.31 µM [falling, partial curve, poor fit]",–
COc1ccc(N2C(=O)CC(N(CCc3ccc(OC)c(OC)c3)C(=S)Nc3ccccc3)C2=O)cc1 (stereo not drawn),"25.9 µM [falling, single point]",–
CN(Cc1nc(CCc2ccccc2)no1)Cc1cccs1,"0.631 µM [rising, full curve, poor fit]",–
CCC(C)C(NC(=O)c1ccccc1NC(=O)c1ccc(C)cc1)C(=O)O (stereo not drawn),"7.08 µM [falling, partial curve]",–
Cc1ccc(NC(=O)Nc2ccc3c(c2)nc(C)n3C)cc1C,"12.6 µM [rising, single point]",–
Cc1cccc(NC(=O)c2ccccc2NC(=O)C2CCCCC2)c1C,"6.31 µM [falling, single point]",–
COc1ccc(C(=O)N(Cc2ccc(N(C)C)cc2)C2CCS(=O)(=O)C2)cc1 (stereo not drawn),"31.6 µM [rising, single point]",–
COc1ccc(N=CC2=C(O)CC(C)(C)CC2=O)cc1OC,"2.51 µM [rising, partial curve]",–
CC(C)(C)OC(=O)NCCc1nnc(SCc2c(Cl)cccc2Cl)o1,"29.1 µM [falling, single point]",–
O=C1/C(=C/c2cccnc2)CC/C1=C\c1cccnc1,"12.6 µM [falling, partial curve, poor fit]",–
O=C1COc2ccc(-c3csc(NCCc4ccccc4)n3)cc2N1,"0.112 µM [rising, full curve, poor fit]",–
CC(NC(=O)CSc1nnc(CC(=O)Nc2ccc(Cl)c(Cl)c2)n1C)c1ccccc1 (stereo not drawn),"18.4 µM [falling, single point]",–
CN(C)c1ccc(C(CC(=O)c2ccccc2)C2CCCCC2=O)cc1 (stereo not drawn),"4.61 µM [falling, single point]",–
Nc1[nH]n(-c2ccccc2)c(=O)c1N=Nc1ccc2c(c1)OCCO2,"3.55 µM [falling, partial curve]","0.224 µM [rising, full curve, poor fit]"
Cc1ccc2[nH]c(=O)c(CN(CCc3ccccc3)Cc3nnnn3CC3CCCO3)cc2c1 (stereo not drawn),"29.1 µM [falling, single point]",–
O=c1c2ccccc2c(/C=N/c2nnc(Cc3ccccc3)s2)c(O)n1-c1ccc(Cl)cn1,"2.06 µM [rising, full curve, poor fit]",–
Cc1ccc(C(=O)/C=C/c2ccc3c(c2)OCO3)o1,"29.1 µM [falling, single point]",–
